Results taken from PubChem BioAssay AID504467 (National Center for Advancing Translational Sciences (NCATS), 2011).
Screen size: about 330,000 compounds; about 7,700 (2.3%) were called active. Inconclusive results, whose numbers are uncertain, are shown with a selection of clear calls. Calls follow the shape of the dose curve; as a rule, active = well fitted inhibition curve with a large enough effect; inconclusive = small, poorly fitted or top-dose-only effect, or effect the other way; inactive = flat fitted curve, though single readings scatter. A potency beside an inconclusive call is a rough fit, not a confirmed value.

test: qHTS screen for small molecules that inhibit ELG1-dependent DNA repair in human embryonic kidney (HEK293T) cells expressing luciferase-tagged ELG1; conditions: HEK293T ELG1-luciferase reporter, luminescence, 16 h, DNA damage induced by 5-fluorouridine; series mostly up to 46.1 µM; also: nearly all actives have a fitted effect of over 55% in size
Procedure, shortened: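 Overnight (16 hr) co-exposure of 2,000 cells/well to 5-fluorouridine and compound at 37 °C preceded detection. Luciferase was quantified via ONE-Glo luminescence; loss of signal denotes inhibition.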
Potency is read from the fitted curve at half-maximal effect.

Which Potency does the source give for `COc1ccccc1/C=C/C(=O)Nc1ccc2c(c1)CCC2` here?
The Potency was inconclusive: 2.59 µM [activator, full curve].

Which Potency does the source give for `COc1ccc(C2=CC(c3ccc(Cl)cc3)n3cnnc3N2)cc1OC` (configuration not stated) here?
Its Potency is inconclusive: 29.1 µM [inhibitor, single point].

With `COc1cc(OC)c2c(-c3cccc(-c4ccc(F)c(Cl)c4)c3)cc(=O)oc2c1` as the compound, how does the Potency read?
The Potency was inconclusive: 20.6 µM [inhibitor, partial curve].

For `O=C1CC(C2CCCO2)C(=O)N1c1ccc(Cl)c(Cl)c1` (configuration not stated), which Potency is on record?
The Potency was inconclusive: 2.06 µM [inhibitor, full curve].

For `CN=C1NN=C(c2cc(C)n(-c3c(C)n(C)n(-c4ccccc4)c3=O)c2C)CS1`, which Potency is on record?
Its Potency is “inactive”.

Which Potency does the source give for `Cc1cccc(OCCC(=O)NNC(=O)Cn2nc(C)cc2C)c1` here?
The Potency was inconclusive: 20.6 µM [activator, partial curve, poor fit].

Which Potency does the source give for `O=C(CN1CCOCC1)Nc1ccc(Oc2ccccc2)cc1` here?
The Potency was “inactive”.

Which Potency does the source give for `Cc1ccc(NC(=O)Nc2sc(=S)n(C)c2C)cc1` here?
The Potency was inconclusive: 25.9 µM [activator, single point].

With `CCC(=O)Nc1ccc(N2CCC(C)CC2)cc1` as the compound, how does the Potency read?
Its Potency is inconclusive: 20.6 µM [activator, partial curve].

For `O=C1C(=O)N(CCN2CCOCC2)C(c2ccccn2)/C1=C(/O)c1ccccc1` (configuration not stated), which Potency is on record?
Its Potency is inconclusive: 18.4 µM [activator, single point].

For `N/C(=N\OC(=O)Cc1ccc(-c2ccccc2)cc1)c1ccccn1`, which Potency is on record?
Its Potency is inconclusive: 18.4 µM [activator, single point].

With `O=C(CNc1cccc(S(=O)(=O)N2CCCC2)c1)Nc1cccc(Br)c1` as the compound, how does the Potency read?
Its Potency is inconclusive: 7.3 µM [inhibitor, partial curve, poor fit].

With `Cc1ccc(N(C(=O)c2snc(C(N)=O)c2N)C(C(=O)NC2CCCC2)c2ccncc2)cc1` (configuration not stated) as the compound, how does the Potency read?
Its Potency is “inactive”.

Which Potency does the source give for `CC(c1ccccc1)N1CC(C(=O)O)CC1=O` (configuration not stated) here?
The Potency was inconclusive: 29.1 µM [inhibitor, single point].

For `CC(=O)Nc1ccc(-c2csc(-c3cccnc3)n2)cc1`, which Potency is on record?
Its Potency is inconclusive: 4.61 µM [activator, partial curve].

For `CCOc1ccc2nc(NC(=O)CSc3nc(SC)ns3)sc2c1`, which Potency is on record?
The Potency was inconclusive: 20.6 µM [activator, single point].

With `NC(=S)NNc1cccc2cccnc12` as the compound, how does the Potency read?
Its Potency is “inactive”.

With `Cc1ccc(Nc2nc(NCCO)c3ccccc3n2)cc1C` as the compound, how does the Potency read?
The Potency was “inactive”.

With `CC(C)(C)NC(=O)CSc1nc(N)c(-c2ccccc2)c(=O)[nH]1` as the compound, how does the Potency read?
The Potency was “inactive”.

Which Potency does the source give for `COc1ccc(C(=O)NCc2ccc3c(c2)OCO3)cc1S(=O)(=O)N(C)Cc1ccccc1` here?
Its Potency is inconclusive: 29.1 µM [inhibitor, single point].

Which Potency does the source give for `CC(C)(C)c1nnc(NC(=O)COc2ccc3c(c2)OCO3)s1` here?
Its Potency is inconclusive: 13 µM [activator, partial curve].

For `Cc1cccc(NC(=O)c2ccc3c(c2)CCN3S(C)(=O)=O)c1C`, which Potency is on record?
Its Potency is inconclusive: 29.1 µM [inhibitor, single point].

With `COc1ccc(CCNC(=O)CSc2ccc(NC(C)=O)cc2)cc1OC` as the compound, how does the Potency read?
The Potency was “inactive”.

With `Cc1occc1-c1nnc(SCC(=O)N2CCCCC2C)o1` (configuration not stated) as the compound, how does the Potency read?
The Potency was inconclusive: 23.1 µM [activator, single point].

Which Potency does the source give for `Clc1ccc(-c2csc(Nc3ccccc3)[n+]2Cc2ccco2)c(Cl)c1` here?
The Potency was inconclusive: 20.6 µM [activator, partial curve].

Which Potency does the source give for `CCn1c(C)cc(/C=C2/SC(=S)NC2=O)c1C` here?
Its Potency is inconclusive: 23.1 µM [activator, partial curve].

Which Potency does the source give for `O=C(Nc1ccncc1)c1ccc2c(c1)S(=O)(=O)c1ccccc1C2=O` here?
The Potency was active: 9.2 µM.

With `COc1ccc(-c2csc(N(CC3CCCO3)C(=O)c3ccc(C)cc3)n2)cc1` (configuration not stated) as the compound, how does the Potency read?
The Potency was inconclusive: 14.6 µM [inhibitor, partial curve].

For `COc1ccc(NC(=O)c2nc[nH]c2C(=O)NCC(=O)OC(C)(C)C)cc1`, which Potency is on record?
Its Potency is inconclusive: 29.1 µM [inhibitor, single point].

For `O=C(CS(=O)(=O)c1ccccc1Cl)N1CCOCC1`, which Potency is on record?
The Potency was “inactive”.

With `CN(CC(=O)Nc1ccc(OC(F)(F)F)cc1)C(=O)/C=C/c1cc2c(cc1[N+](=O)[O-])OCO2` as the compound, how does the Potency read?
The Potency was inconclusive: 35.5 µM [inhibitor, single point].

Which Potency does the source give for `CCn1cc(C(=O)O)c(=O)c2cc(F)c(N3CCN(C(=S)NC(=O)c4ccc(F)cc4)CC3)cc21` here?
The Potency was “inactive”.

For `CN1CCN(S(=O)(=O)c2cnccc2N2CCN(c3cccc(Cl)c3)CC2)CC1`, which Potency is on record?
Its Potency is “inactive”.

With `CCCCNC(=O)COC(=O)c1cc(C)oc1C` as the compound, how does the Potency read?
The Potency was “inactive”.

With `CC1=Nc2ccccc2N=C(NC(=O)CN2CCN(c3ccccc3)CC2)C1c1ccccc1` (configuration not stated) as the compound, how does the Potency read?
Its Potency is “inactive”.

For `Cc1cc(C)n2nc(SCCC(=O)NCCc3ccccc3)nc2n1`, which Potency is on record?
The Potency was “inactive”.

For `COc1ccc(C2=NOC(C(=O)N3CCN(c4ccccc4OC)CC3)C2)cc1` (configuration not stated), which Potency is on record?
The Potency was inconclusive: 18.4 µM [inhibitor, single point].

Which Potency does the source give for `CC1(C)CC(=O)c2cnc(NC(=O)CSc3nc4ccccc4o3)nc2C1` here?
The Potency was inconclusive: 25.9 µM [activator, partial curve].

Which Potency does the source give for `COc1ccc(-c2cc3ccccc3n2CC(O)CN2CCCCC2)cc1` (configuration not stated) here?
Its Potency is “inactive”.

With `Cc1ccnc(NC(=O)c2c(O)c3ccccc3n(C)c2=O)c1` as the compound, how does the Potency read?
Its Potency is inconclusive: 2.31 µM [activator, partial curve].

With `O=C(N/N=C/c1cccc([N+](=O)[O-])c1)C1CC(=O)N(c2ccc(F)cc2)C1` (configuration not stated) as the compound, how does the Potency read?
Its Potency is “inactive”.

Which Potency does the source give for `O=C(C1=C[C@H](c2ccc3c(c2)OCO3)C[C@H](OCc2ccc(CO)cc2)O1)N1CCOCC1` here?
The Potency was “inactive”.

For `CCOc1ccc(C(=O)NCC(=O)NNC(=O)CN(C)S(=O)(=O)c2ccc(Cl)cc2)cc1`, which Potency is on record?
The Potency was “inactive”.

For `Cc1ccc(-c2csc3n[nH]c(=S)n23)cc1`, which Potency is on record?
Its Potency is “inactive”.

Which Potency does the source give for `CCCn1c(SCC(=O)N2c3ccccc3Sc3ccccc32)nc2c1c(=O)n(C)c(=O)n2C` here?
Its Potency is inconclusive: 18.4 µM [inhibitor, single point].

For `CCOC(=O)C1CCN(C(=O)c2ccccc2NC(C)=O)CC1`, which Potency is on record?
Its Potency is “inactive”.

For `O=C1c2ccccc2S(=O)(=O)N1CCOc1ccc(F)cc1`, which Potency is on record?
The Potency was inconclusive: 20.6 µM [activator, partial curve].
